Measurements: PMC6394298
These are yes or no findings as the source states them, for the method shown. Binding seen in cells or lysates may run through a third protein. For some assays here: Binding can be weak; no strength is given. Values belong to the molecule of their own block, whether it stands above or below them.

Amino acid sequences for entries named in this document (tags omitted). A change or cut given only in a name is not applied to a line headed by its entry.
UniProt Q8VI36: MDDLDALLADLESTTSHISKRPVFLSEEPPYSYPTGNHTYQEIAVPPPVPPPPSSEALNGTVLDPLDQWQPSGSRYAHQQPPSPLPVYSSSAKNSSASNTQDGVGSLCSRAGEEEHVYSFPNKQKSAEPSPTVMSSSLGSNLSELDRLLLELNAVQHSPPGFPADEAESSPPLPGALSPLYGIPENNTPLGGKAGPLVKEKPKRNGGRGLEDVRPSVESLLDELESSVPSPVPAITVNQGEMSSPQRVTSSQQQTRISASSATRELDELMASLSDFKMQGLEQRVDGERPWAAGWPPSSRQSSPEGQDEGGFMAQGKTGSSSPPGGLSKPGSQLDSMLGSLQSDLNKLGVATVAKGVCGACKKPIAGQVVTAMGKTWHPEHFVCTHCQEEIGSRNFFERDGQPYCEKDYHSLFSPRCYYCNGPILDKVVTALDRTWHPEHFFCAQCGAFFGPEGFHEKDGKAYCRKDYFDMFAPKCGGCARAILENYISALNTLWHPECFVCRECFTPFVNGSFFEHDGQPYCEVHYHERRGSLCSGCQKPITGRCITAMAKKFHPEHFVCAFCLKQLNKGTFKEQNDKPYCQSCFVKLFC

What was measured:
Test in all cases: pull-down; His6-tagged paxillin (WT, S273A, S273D) or His6-tagged DDX42 (WT, D407A) overexpressed in Ba/F3 cells, precipitated from the lysate with Ni-NTA agarose beads; co-precipitated endogenous proteins detected by western blot (anti-DDX42, anti-GIT1, anti-paxillin); mock-transfected and parental cells as controls
[1] = molecular target: His6-tagged DDX42 mutant D407A (mouse) (UniProt Q810A7)
[2] = molecular target: His6-tagged paxillin mutant S273A (mouse) (UniProt Q8VI36)
[3] = molecular target: His6-tagged paxillin mutant S273D (mouse) (UniProt Q8VI36)

binding [1]: no binding
Molecule: paxillin (endogenous in Ba/F3 cells) (from UniProt Q8VI36 1-591)

binding [2]: binds | binding [3]: binds weakly
B1: ATP-dependent RNA helicase DDX42 (protein, UniProt Q810A7 1-929)
chain: MNWNKGGPGTKRGFGFGGFAISAGKKEEAKLPQQSHSAFGAASSSSGFGKSAPPQLPSFYKIGSKRANFDEENAYFEDEEEDSSNVDLPYIPAENSPTRQQFHSKPADSDSDDDPLEAFMAEVEDQAARDMKRLEEKDKERKNVKGIRDDIEEEDDQEAYFRYMAENPTAGVVQEEEEDNLEYDSDGNPIAPSKKIIDPLPPIDHSEIDYPPFEKNFYNEHEEITNLTPQQLIDLRHKLNLRVSGAAPPRPGSSFAHFGFDEQLMHQIRKSEYTQPTPIQCQGVPVALSGRDMIGIAKTGSGKTAAFIWPMLIHIMDQKELEPGDGPIAVIVCPTRELCQQIHAECKRFGKAYNLRSVAVYGGGSMWEQAKALQEGAEIVVCTPGRLIDHVKKKATNLQRVSYLVFDEADRMFDMGFEYQVRSIASHVRPDRQTLLFSATFRKKIEKLARDILIDPIRVVQGDIGEANEDVTQIVEILHSGPSKWNWLTRRLVEFTSSGSVLLFVTKKANAEELASNLKQEGHNLGLLHGDMDQSERNKVISDFKKKDIPVLVATDVAARGLDIPSIKTVINYDVARDIDTHTHRIGRTGRAGEKGVAYTLLTPKDSNFAGDLVRNLEGANQHVSKELLDLAMQNAWFRKSRFKGGKGKKLNIGGGGLGYRERPGLGSENSDRGNNNNVMSNYEAYKPSTGAMGDRLTAMKAAFQSQYKSHFVAASLSNQKAGTSSAGASGWTSAGSLNSVPTNSAQQGHNSPDNPMTSSTKNIPGFNNSGNISSAPVTYPSIGAQGVNNTASGNNSREGIGGGNGKRERYTENRGGSRHSHGDGGNRHGDGGRHGDGYRYPESGSRHTDGHRHGETRHGGSAGRHGESRGANDGRNGESRKEGFNRENKMDPKVDSSRMDKVDSKTDKTPDGFAVPEPPKRKKSRWDS

binding [2]: binds | binding [3]: binds weakly
B2: ARF GTPase-activating protein GIT1 (protein, UniProt Q68FF6 1-770)
chain: MSRKGPRAEVCADCSAPDPGWASISRGVLVCDECCSVHRSLGRHISIVKHLRHSAWPPTLLQMVHTLASNGANSIWEHSLLDPAQVQSGRRKANPQDKVHPIKSEFIRAKYQMLAFVHKLPCRDDDGVTAKDLSKQLHSSVRTGNLETCLRLLSLGAQANFFHPEKGTTPLHVAAKAGQTLQAELLVVYGADPGSPDVNGRTPIDYARQAGHHELAERLVECQYELTDRLAFYLCGRKPDHKNGHYIIPQMADRSRQKCMSQSLDLSELAKAAKKKLQALSNRLFEELAMDVYDEVDRRENDAVWLATQNHSTLVTERSAVPFLPVNPEYSATRNQGRQKLARFNAREFATLIIDILSEAKRRQQGKSLSSPTDNLELSARSQSELDDQHDYDSVASDEDTDQEPLPSAGATRNNRARSMDSSDLSDGAVTLQEYLELKKALATSEAKVQQLMKVNSSLSDELRRLQREIHKLQAENLQLRQPPGPVPPPSLPSERAEHTLMGPGGSTHRRDRQAFSMYEPGSALKPFGGTPGDELATRLQPFHSTELEDDAIYSVHVPAGLYRIRKGVSASSVPFTPSSPLLSCSQEGSRHASKLSRHGSGADSDYENTQSGDPLLGLEGKRFLELSKEDELHPELESLDGDLDPGLPSTEDVILKTEQVTKNIQELLRAAQEFKHDSFVPCSEKIHLAVTEMASLFPKRPALEPVRSSLRLLNASAYRLQSECRKTVPPEPGAPVDFQLLTQQVIQCAYDIAKAAKQLVTITTREKKQ
